The assay deals with T1, Flag-tagged MYLK4 (myosin light chain kinase family member 4) in 143B cells (human) (UniProt Q86YV6).
T1 sequence: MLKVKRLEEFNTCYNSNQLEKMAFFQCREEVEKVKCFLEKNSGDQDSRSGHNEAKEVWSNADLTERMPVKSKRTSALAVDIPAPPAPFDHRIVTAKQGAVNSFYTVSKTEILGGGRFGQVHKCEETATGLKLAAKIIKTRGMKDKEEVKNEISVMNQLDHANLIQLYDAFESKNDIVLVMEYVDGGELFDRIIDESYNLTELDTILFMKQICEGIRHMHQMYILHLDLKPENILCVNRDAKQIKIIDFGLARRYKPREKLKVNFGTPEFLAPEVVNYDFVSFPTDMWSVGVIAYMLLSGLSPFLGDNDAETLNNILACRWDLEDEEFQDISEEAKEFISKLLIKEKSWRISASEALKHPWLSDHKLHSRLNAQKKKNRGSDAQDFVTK
Nature of the assay: affinity purification with mass spectrometry; IP beads from a 10 cm dish of Flag-MYLK4 overexpression 143B cells; silver staining, indicated bands sequenced by MS (Orbitrap Elite).

Results are given in words; binding and its absence hold for the method and conditions named. In cells and extracts the contact can be indirect. These calls come from enrichment with a bait or labelling near it, and not all partners need be listed. Tags and fused reporters may be left off the sequences shown.

For the substance “Epidermal growth factor receptor (EGFR), endogenous in 143B cells (from UniProt P00533 25-1210)”, the binding result was “binds”.

The values are drawn from article PMC8114533.
